Literature values as cited in patent publication US12357536B2, “Containers with selective dissolved gas content” (BAXTER INTERNATIONAL INC., priority 2021, dated 2025).
Read-outs that look alike come from different tables or passages of the source. This continues a long series; more values of the same kind are listed elsewhere.

Conditions: 760 mm Hg, salinity 0.0 ppt, cited from earlier work

For `O=O` [oxygen], the Solubility of oxygen (0.0 °C) is listed as 14.602 ppm, the Solubility of oxygen (0.2 °C) is listed as 14.520 ppm and the Solubility of oxygen (0.4 °C) is listed as 14.438 ppm. The Solubility of oxygen (0.6 °C) was 14.358 ppm, the Solubility of oxygen (0.8 °C) was 14.278 ppm and the Solubility of oxygen (1.0 °C) was 14.198 ppm. For the same compound, the Solubility of oxygen (1.2 °C) was 14.120 ppm, the Solubility of oxygen (1.4 °C) was 14.042 ppm and the Solubility of oxygen (1.6 °C) was 13.969 ppm. For the same compound, the Solubility of oxygen (1.8 °C) was 13.889 ppm, the Solubility of oxygen (2.0 °C) was 13.813 ppm and the Solubility of oxygen (2.2 °C) was 13.738 ppm. The Solubility of oxygen (2.4 °C) was 13.664 ppm, the Solubility of oxygen (2.6 °C) was 13.591 ppm and the Solubility of oxygen (2.8 °C) was 13.518 ppm. For the same compound, the Solubility of oxygen (23.0 °C) was 8.560 ppm, the Solubility of oxygen (23.2 °C) was 8.528 ppm and the Solubility of oxygen (23.4 °C) was 8.495 ppm. The Solubility of oxygen (23.6 °C) was 8.463 ppm, the Solubility of oxygen (23.8 °C) was 8.431 ppm and the Solubility of oxygen (24.0 °C) was 8.400 ppm. For the same compound, the Solubility of oxygen (24.2 °C) was 8.368 ppm, the Solubility of oxygen (24.4 °C) was 8.337 ppm and the Solubility of oxygen (24.6 °C) was 8.306 ppm. For the same compound, the Solubility of oxygen (24.8 °C) was 8.275 ppm, the Solubility of oxygen (25.0 °C) was 8.244 ppm and the Solubility of oxygen (25.2 °C) was 9.214 ppm. For the same compound, the Solubility of oxygen (25.4 °C) was 8.184 ppm, the Solubility of oxygen (25.6 °C) was 8.153 ppm and the Solubility of oxygen (25.8 °C) was 8.124 ppm. For the same compound, the Solubility of oxygen (26.0 °C) was 8.094 ppm, the Solubility of oxygen (26.2 °C) was 8.065 ppm and the Solubility of oxygen (26.4 °C) was 8.035 ppm. The Solubility of oxygen (26.6 °C) was 8.006 ppm, the Solubility of oxygen (26.8 °C) was 7.977 ppm and the Solubility of oxygen (27.0 °C) was 7.949 ppm. For the same compound, the Solubility of oxygen (27.2 °C) was 7.920 ppm, the Solubility of oxygen (27.4 °C) was 7.892 ppm and the Solubility of oxygen (27.6 °C) was 7.864 ppm. The Solubility of oxygen (27.8 °C) was 7.836 ppm, the Solubility of oxygen (28.0 °C) was 7.808 ppm and the Solubility of oxygen (28.2 °C) was 7.780 ppm. The Solubility of oxygen (28.4 °C) was 7.753 ppm, the Solubility of oxygen (28.6 °C) was 7.725 ppm and the Solubility of oxygen (28.8 °C) was 7.698 ppm. The Solubility of oxygen (29.0 °C) was 7.671 ppm, the Solubility of oxygen (29.2 °C) was 7.645 ppm and the Solubility of oxygen (29.4 °C) was 7.618 ppm. The Solubility of oxygen (29.6 °C) was 7.592 ppm and the Solubility of oxygen (29.8 °C) was 7.565 ppm.
